The list does not hold the whole screen: it is rich in T/C values a quarter to a half above the control, in often repeated tests (any T/C) and in doses without a T/C. Other doses and runs of a compound stand elsewhere. T/C is the treated group as % of the vehicle group. Some doses have a count of surviving animals in place of a T/C: the source holds a T/C of zero for them, seemingly a mark for toxic or unscored doses. Some survivor counts are full or nearly so, which does not show that the dose was tolerated: the source hardly ever lists a survival T/C far under the control, and the zero likely stands for such cases as well. Counts of survivors are from the toxicity check (mostly the fifth day) where no day follows; animals may have died later. Schedule codes are those of the source, read here as Q, the interval in days (D) or hours (H), X, the number of doses. Some entries were tested several times; the results are listed from low to high. For survival time, the PubChem record calls one and a half times the control and up active, and a quarter to a half above the control has no call in these data; cut-offs in other NCI protocols can differ. Some T/C values are followed by the survivors on the day toxicity was checked, most often the fifth; without a count, all were alive then.
Test system: L1210 leukemia ip in BDF1 mice, survival T/C
Test: NCI In Vivo Anticancer Drug Screen. Data for tumor model L1210 Leukemia (intraperitoneal) in B6D2F1 (BDF1) mice
Conditions: T/C endpoint: mean survival time, higher T/C = longer survival
[1] = dose: 400.0 mg/kg/injection, schedule: Q01DX001 (ip), vehicle: saline
[2] = dose: 400.0 mg/kg/injection, schedule: Q01DX009 (ip), vehicle: saline with Tween-80
[3] = dose: 200.0 mg/kg/injection, schedule: Q01DX001 (ip), vehicle: carboxymethylcellulose (CMC)
[4] = dose: 400.0 mg/kg/injection, schedule: Q01DX001 (ip), vehicle: carboxymethylcellulose (CMC)
[5] = dose: 100.0 mg/kg/injection, schedule: Q01DX009 (ip), vehicle: saline with Tween-80
[6] = dose: 200.0 mg/kg/injection, schedule: Q04DX003 (ip), vehicle: saline with Tween-80
[7] = dose: 400.0 mg/kg/injection, schedule: Q04DX003 (ip), vehicle: saline with Tween-80
[8] = dose: 200.0 mg/kg/injection, schedule: Q01DX009 (ip), vehicle: saline with Tween-80
[9] = dose: 400.0 mg/kg/injection, schedule: Q04DX003 (ip), vehicle: saline
[10] = dose: 200.0 mg/kg/injection, schedule: Q01DX001 (ip), vehicle: saline
[11] = dose: 200.0 mg/kg/injection, schedule: Q04DX003 (ip), vehicle: saline
[12] = dose: 400.0 mg/kg/injection, schedule: Q01DX009 (ip), vehicle: Klucel (hydroxypropylcellulose) (HPC)
[13] = dose: 100.0 mg/kg/injection, schedule: Q01DX001 (ip), vehicle: other
[14] = dose: 200.0 mg/kg/injection, schedule: Q01DX001 (ip), vehicle: other
[15] = dose: 400.0 mg/kg/injection, schedule: Q01DX001 (ip), vehicle: other
[16] = dose: 400.0 mg/kg/injection, schedule: Q04DX002 (ip), vehicle: Klucel (hydroxypropylcellulose) (HPC)

## CSc1nc(NN(C)C)c2[nH]c(C)nc2n1
[1]
  survivor count: 3 of 6

## CC(C)C(N)(CCN1CCOCC1)c1cccc2ccccc12 (configuration not stated)
[2]
  survivor count: 0 of 6
dose: 400.0 mg/kg/injection, schedule: Q04DX002 (ip), vehicle: saline with Tween-80
  survivor count: 0 of 3

## CC1(C)CCC(=NO)CC1
dose: 300.0 mg/kg/injection, schedule: Q01DX001 (ip), vehicle: other
  survivor count: 1 of 6

## CC(=O)OC1CC(OC2C(O)CC(OC3C(O)CC(OC4CCC5(C)C(CCC6C5CC(O)C5(C)C(C7=CC(=O)OC7)CCC65O)C4)OC3C)OC2C)OC(C)C1O (configuration not stated) (tested in a mixture with another compound)
dose: 400.0 mg/kg/injection, schedule: Q01DX001 (sc), vehicle: steroid suspending solution
  survivor count: 1 of 6

## COc1ccccc1NC(=O)N(CCCl)N=O
dose: 5.3 mg/kg/injection, schedule: Q01DX009 (ip), vehicle: carboxymethylcellulose (CMC)
  T/C: 127 and 142 % of control
dose: 8.0 mg/kg/injection, schedule: Q01DX009 (ip), vehicle: carboxymethylcellulose (CMC)
  T/C: 149 % of control
[3]
  survivor count: 1 of 4
[4]
  survivor count: 0 of 4

## CCc1ncc(N2C3CCCC2CC(=O)C3)[nH]1
dose: 300.0 mg/kg/injection, schedule: Q01DX001 (ip), vehicle: saline
  survivor count: 2 of 6

## CCOC(=O)C1C(=O)NC(=O)CC1C (configuration not stated)
[5]
  T/C: 137 % of control

## C#CCOP(=O)(C#CC)OCC#C
[6]
  survivor count: 0 of 6
[7]
  survivor count: 0 of 6

## CCC1=[N+](C)C(C)(C)CC(C)O1 (configuration not stated)
dose: 100.0 mg/kg/injection, schedule: Q04DX003 (ip), vehicle: saline with Tween-80
  survivor count: 3 of 6
[6]
  survivor count: 1 of 6
[7]
  survivor count: 0 of 6

## CC(C)(C)c1cc([N+](=O)[O-])cc(C(C)(C)C)c1O
[8]
  survivor count: 6 of 6
[9]
  survivor count: 1 of 6

## OCC1OC(n2nnc3c(=S)nc[nH]c32)C(O)C1O (configuration not stated)
dose: 25.0 mg/kg/injection, schedule: Q01DX001 (ip), vehicle: saline
  T/C: 133 % of control

## CC1=CC(=O)C(C(C)C)CC1=O (configuration not stated)
[5]
  survivor count: 1 of 6
[8]
  survivor count: 3 of 6
[2]
  survivor count: 0 of 6

## O=C(O)c1cc(S(=O)(=O)F)c(Cl)cc1Cl
[8]
  survivor count: 3 of 6
[2]
  survivor count: 3 of 6

## O=C(CN1CCCCC1Cl)c1ccccc1 (configuration not stated)
[10]
  survivor count: 0 of 6
[11]
  survivor count: 2 of 6
[1]
  survivor count: 0 of 6
[9]
  survivor count: 0 of 6

## CCCCCCCCCCCCCCCC(=O)N(CCC)CCC
dose: 400.0 mg/kg/injection, schedule: Q01DX009 (ip), vehicle: carboxymethylcellulose (CMC)
  survivor count: 2 of 3 and 6 of 6

## CCN(CC)CCN(C(=O)C(O)(c1ccccc1)c1ccccc1)C(C)C
dose: 400.0 mg/kg/injection, schedule: Q04DX002 (ip), vehicle: saline
  survivor count: 1 of 3

## Cc1ccc(NC(=O)c2c(Br)c(Br)c(Br)c(Br)c2C(=O)O)cc1Cl
[12]
  survivor count: 2 of 6

## N#CCC[N+]1([O-])CCCCC1C(=O)O (configuration not stated)
[1]
  survivor count: 0 of 4

## c1cc[c]([Pb]([c]2ccccc2)([c]2ccccc2)[n]2ccnc2)cc1
dose: 20.0 mg/kg/injection, schedule: Q01DX001 (ip), vehicle: other
  survivor count: 3 of 6
dose: 40.0 mg/kg/injection, schedule: Q01DX001 (ip), vehicle: other
  survivor count: 2 of 6
dose: 80.0 mg/kg/injection, schedule: Q01DX001 (ip), vehicle: other
  survivor count: 0 of 6
[13]
  survivor count: 1 of 6
[14]
  survivor count: 0 of 6
[15]
  survivor count: 1 of 6

## O=C(Nc1cccc(Cl)c1)c1cc([N+](=O)[O-])ccc1O
[13]
  survivor count: 1 of 4
dose: 160.0 mg/kg/injection, schedule: Q02DX010 (ip), vehicle: carboxymethylcellulose (CMC)
  survivor count: 6 of 6
[14]
  survivor count: 0 of 4
[15]
  survivor count: 0 of 4

## CC(Cc1ccccc1)N(C)C (configuration not stated)
dose: 100.0 mg/kg/injection, schedule: Q01DX001 (ip), vehicle: saline
  survivor count: 2 of 6
dose: 100.0 mg/kg/injection, schedule: Q04DX003 (ip), vehicle: saline
  survivor count: 0 of 6
[10]
  survivor count: 0 of 6
[11]
  survivor count: 0 of 6
[1]
  survivor count: 0 of 6
[9]
  survivor count: 0 of 6

## OCCOc1ccc(Cl)cc1Cl
[15]
  survivor count: 2 of 4

## Cc1cc(NC(=O)c2ccc(C(=O)Nc3cc(C)nc4ccccc34)cc2)c2ccccc2n1
[14]
  survivor count: 2 of 6
[15]
  survivor count: 0 of 6

## N#CCCN(N=O)C(=O)Nc1ccccc1
dose: 150.0 mg/kg/injection, schedule: Q01DX001 (ip), vehicle: carboxymethylcellulose (CMC)
  T/C: 147 % of control [9 of 10 alive]
dose: 300.0 mg/kg/injection, schedule: Q01DX001 (ip), vehicle: carboxymethylcellulose (CMC)
  survivor count: 0 of 10
dose: 600.0 mg/kg/injection, schedule: Q01DX001 (ip), vehicle: carboxymethylcellulose (CMC)
  survivor count: 0 of 10
dose: 1200.0 mg/kg/injection, schedule: Q01DX001 (ip), vehicle: carboxymethylcellulose (CMC)
  survivor count: 0 of 10
dose: 2400.0 mg/kg/injection, schedule: Q01DX001 (ip), vehicle: carboxymethylcellulose (CMC)
  survivor count: 0 of 10

## c1ccc2c(c1)OC1OC2Oc2ccccc21
[1]
  T/C: 125 % of control

## Cc1cc(=O)oc2cc(OC(=O)Nc3ccccc3)ccc12
dose: 200.0 mg/kg/injection, schedule: Q01DX009 (ip), vehicle: Klucel (hydroxypropylcellulose) (HPC)
  survivor count: 0 of 3
[12]
  survivor count: 0 of 3 and 0 of 6
[16]
  survivor count: 1 of 3 and 4 of 6

## NCCCNCC1C(c2ccccc2)C1c1ccccc1 (configuration not stated)
dose: 100.0 mg/kg/injection, schedule: Q04DX002 (ip), vehicle: Klucel (hydroxypropylcellulose) (HPC)
  survivor count: 0 of 3
dose: 200.0 mg/kg/injection, schedule: Q04DX002 (ip), vehicle: Klucel (hydroxypropylcellulose) (HPC)
  survivor count: 0 of 3
[16]
  survivor count: 0 of 3

## CN(C)C1c2ccccc2-c2ccc(N)cc21 (configuration not stated)
[3]
  survivor count: 0 of 4
[4]
  survivor count: 0 of 4

## Nc1cccc[n+]1CC1(c2ccccc2)OCCO1
dose: 200.0 mg/kg/injection, schedule: Q01DX001 (ip), vehicle: Klucel (hydroxypropylcellulose) (HPC)
  survivor count: 1 of 6

## CS(=O)(=O)OCCN(CCOS(C)(=O)=O)c1ccc(C=Nc2ccc(-c3csc(-c4ccc(Br)cc4)n3)cc2)c(Cl)c1
dose: 400.0 mg/kg/injection, schedule: Q04DX003 (ip), vehicle: Klucel (hydroxypropylcellulose) (HPC)
  T/C: 127 % of control

— PubChem BioAssay AID248 (DTP/NCI, 2004)
